Measured values from article PMC3291577.
Results are given in words; binding and its absence hold for the method and conditions named. In cells and extracts the contact can be indirect. Some entries that bind do so weakly or less than the wild type. For some of these results: Sequences can lack the tags named with a protein.

Chains of the proteins cited; added tags and fusions are not shown.
UniProt P25439: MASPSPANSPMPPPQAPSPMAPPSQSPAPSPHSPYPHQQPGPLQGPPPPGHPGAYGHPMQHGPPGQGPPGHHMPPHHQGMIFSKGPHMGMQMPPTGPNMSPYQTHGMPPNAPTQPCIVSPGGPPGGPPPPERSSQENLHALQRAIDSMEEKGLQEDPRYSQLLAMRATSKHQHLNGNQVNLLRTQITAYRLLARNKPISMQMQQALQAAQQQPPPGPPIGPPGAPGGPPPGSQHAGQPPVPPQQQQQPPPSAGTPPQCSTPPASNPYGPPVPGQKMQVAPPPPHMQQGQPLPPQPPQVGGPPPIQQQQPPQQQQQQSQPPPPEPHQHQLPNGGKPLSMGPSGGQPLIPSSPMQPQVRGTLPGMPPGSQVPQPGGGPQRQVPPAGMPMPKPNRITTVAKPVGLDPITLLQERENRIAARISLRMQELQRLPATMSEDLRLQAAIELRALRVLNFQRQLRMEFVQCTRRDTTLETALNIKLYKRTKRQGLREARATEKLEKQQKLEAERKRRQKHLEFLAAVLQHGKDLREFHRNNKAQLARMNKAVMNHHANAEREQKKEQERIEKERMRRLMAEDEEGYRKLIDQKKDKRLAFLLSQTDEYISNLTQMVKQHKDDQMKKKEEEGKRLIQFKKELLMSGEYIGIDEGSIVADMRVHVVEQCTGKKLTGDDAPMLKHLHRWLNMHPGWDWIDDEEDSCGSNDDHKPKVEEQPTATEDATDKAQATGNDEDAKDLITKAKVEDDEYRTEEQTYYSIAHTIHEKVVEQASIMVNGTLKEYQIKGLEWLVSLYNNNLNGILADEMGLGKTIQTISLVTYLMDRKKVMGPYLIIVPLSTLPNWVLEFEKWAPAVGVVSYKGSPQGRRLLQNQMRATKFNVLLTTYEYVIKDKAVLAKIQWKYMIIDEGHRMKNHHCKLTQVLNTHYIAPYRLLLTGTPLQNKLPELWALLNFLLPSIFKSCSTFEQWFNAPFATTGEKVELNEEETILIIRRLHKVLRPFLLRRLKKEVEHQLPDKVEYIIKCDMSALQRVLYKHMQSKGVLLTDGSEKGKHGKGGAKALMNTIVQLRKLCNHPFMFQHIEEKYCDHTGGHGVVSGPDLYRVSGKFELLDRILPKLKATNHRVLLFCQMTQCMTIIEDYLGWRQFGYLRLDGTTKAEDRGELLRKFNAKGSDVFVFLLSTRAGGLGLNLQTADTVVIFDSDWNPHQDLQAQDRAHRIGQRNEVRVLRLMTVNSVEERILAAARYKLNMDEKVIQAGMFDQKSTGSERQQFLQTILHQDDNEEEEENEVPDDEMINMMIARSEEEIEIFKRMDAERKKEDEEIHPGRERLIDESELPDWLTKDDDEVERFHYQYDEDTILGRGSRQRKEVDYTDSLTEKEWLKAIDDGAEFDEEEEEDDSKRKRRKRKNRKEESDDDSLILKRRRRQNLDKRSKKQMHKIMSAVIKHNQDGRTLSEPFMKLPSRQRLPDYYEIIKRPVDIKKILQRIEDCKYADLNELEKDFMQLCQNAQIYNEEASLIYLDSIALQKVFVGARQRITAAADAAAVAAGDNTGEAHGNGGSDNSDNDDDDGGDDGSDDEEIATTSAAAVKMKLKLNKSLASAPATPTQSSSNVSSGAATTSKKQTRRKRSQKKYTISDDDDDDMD

T1: tagged Akirin (Drosophila melanogaster) (UniProt Q9VS59)
T1 sequence: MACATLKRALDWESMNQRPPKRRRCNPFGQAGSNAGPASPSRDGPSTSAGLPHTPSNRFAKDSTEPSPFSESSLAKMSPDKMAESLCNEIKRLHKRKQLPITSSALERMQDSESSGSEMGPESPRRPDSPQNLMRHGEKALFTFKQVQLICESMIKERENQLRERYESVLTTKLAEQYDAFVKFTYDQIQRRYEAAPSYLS

T2: GST-Twist fusion protein (Drosophila melanogaster) (UniProt P10627)
T2 sequence: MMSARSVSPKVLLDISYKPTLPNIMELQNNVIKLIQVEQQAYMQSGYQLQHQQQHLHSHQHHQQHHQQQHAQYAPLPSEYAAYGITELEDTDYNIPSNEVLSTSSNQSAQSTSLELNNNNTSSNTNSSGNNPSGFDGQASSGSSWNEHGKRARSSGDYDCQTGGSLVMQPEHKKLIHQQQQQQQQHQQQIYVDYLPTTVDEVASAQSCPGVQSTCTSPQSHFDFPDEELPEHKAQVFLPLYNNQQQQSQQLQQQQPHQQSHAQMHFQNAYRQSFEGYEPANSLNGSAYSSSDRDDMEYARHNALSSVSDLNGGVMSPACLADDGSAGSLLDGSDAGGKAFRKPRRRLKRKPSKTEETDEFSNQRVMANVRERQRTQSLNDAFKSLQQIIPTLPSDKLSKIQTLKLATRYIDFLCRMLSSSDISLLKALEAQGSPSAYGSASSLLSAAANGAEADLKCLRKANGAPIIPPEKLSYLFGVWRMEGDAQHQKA


Key:
[1] = biological target: T1, tagged Akirin (Drosophila melanogaster); test: co-IP; embryonic lysates with tagged Akirin; data not shown
[2] = biological target: T2, GST-Twist fusion protein (Drosophila melanogaster); test: pull-down; GST or GST-Twist on Glutathione Sepharose 4B beads in ZTx buffer (25 mM HEPES pH 7.5, 12.5 mM MgCl2, 20% glycerol, 0.1% Triton-X 100, 150 mM KCl) + 0.25 mg/ml BSA, 1 mM DTT; 35S-labelled in vitro translated proteins, 1 hour at room temperature; washed in NETTx buffer; autoradiography; only the target purified
[3] = biological target: Brahma core subunit (Drosophila melanogaster (endogenous in embryos)) (UniProt P25439); test: co-IP; anti-Brahma antibody, protein A-agarose, total nondenatured yw embryo extracts at 3 mg/mL in IP buffer (10 mM HEPES pH 8, 100 mM NaCl, 10% glycerol, 0.05% Tween-20), 1 hour at 4°C

Molecule | binding [2] | also measured
Brahma core subunit (from UniProt P25439 1-1638) |  | binding [1]: binds weakly
in vitro translated Akirin (35S-methionine-labelled) (protein, UniProt Q9VS59 1-201, 35S-methionine-labelled) MACATLKRALDWESMNQRPPKRRRCNPFGQAGSNAGPASPSRDGPSTSAGLPHTPSNRFAKDSTEPSPFSESSLAKMSPDKMAESLCNEIKRLHKRKQLPITSSALERMQDSESSGSEMGPESPRRPDSPQNLMRHGEKALFTFKQVQLICESMIKERENQLRERYESVLTTKLAEQYDAFVKFTYDQIQRRYEAAPSYLS | binds | 
in vitro translated Daughterless (35S-methionine-labelled) (protein, UniProt P11420 1-710, 35S-methionine-labelled) MATSDDEPMHLYEVFQNCFNKIANKQPTGTVGADRGGGGGYHSPYGSLGVENGMYPSDFNSMHDTVNGGNNRYANASTVDQYFDSAAAGSGGAWCQPQMSSANSYMGQSAYQNSGPLSGHSIDQQQQQVHQADGLGMGGGGGGGVGADGMHCPVTTGLPPISSFRPTSGGIGGPGAGQQAPVNVNVNPPAVFNSPQAHNHNHTVQAQHSALSTAGPLGHHSLNHTPHAHSHTLPLPHALPHGHTLPHPHHSQQNSPAVQSSDAFSGAGASVKVAGAGNSSAAALRQQMYMPADQSISSFGSNPSTPVNSPPPLTQSVVGGGGEPSVSGGSGWGHSVLNGGPSSSYASEMVPVSSLHTMASVFQGVRMEERLDDALNVLRNHCEPEMLAGVNQSLASIDNIDALTSFVPNSPSHLGSGGNSGSVSNTSNAALVHEVLALGAAAAAGTSGQSVGGAGSLASLKLDRSASTSLPKQTKKRKEHTAISNSVPAGVSTTSSLTSLDISDTKPTSSIESSNSGLQQHSQGKGTKRPRRYCSSADEDDDAEPAVKAIREKERRQANNARERIRIRDINEALKELGRMCMTHLKSDKPQTKLGILNMAVEVIMTLEQQVRERNLNPKAACLKRREEEKAEDGPKLSAQHHMIPQPQQVGGTPGSSYHSQPAQLVPPSSQTISTMTISLPVNQANNGLPPHLQQQQQQQSQLGHAQLPQ | binds | 
Twist (endogenous, embryonic extract) (protein, UniProt P10627 1-490) MMSARSVSPKVLLDISYKPTLPNIMELQNNVIKLIQVEQQAYMQSGYQLQHQQQHLHSHQHHQQHHQQQHAQYAPLPSEYAAYGITELEDTDYNIPSNEVLSTSSNQSAQSTSLELNNNNTSSNTNSSGNNPSGFDGQASSGSSWNEHGKRARSSGDYDCQTGGSLVMQPEHKKLIHQQQQQQQQHQQQIYVDYLPTTVDEVASAQSCPGVQSTCTSPQSHFDFPDEELPEHKAQVFLPLYNNQQQQSQQLQQQQPHQQSHAQMHFQNAYRQSFEGYEPANSLNGSAYSSSDRDDMEYARHNALSSVSDLNGGVMSPACLADDGSAGSLLDGSDAGGKAFRKPRRRLKRKPSKTEETDEFSNQRVMANVRERQRTQSLNDAFKSLQQIIPTLPSDKLSKIQTLKLATRYIDFLCRMLSSSDISLLKALEAQGSPSAYGSASSLLSAAANGAEADLKCLRKANGAPIIPPEKLSYLFGVWRMEGDAQHQKA |  | binding [3]: binds
